Assay results: US20130004581A1, “CONTROLLING UPTAKE BY CELLS” (Ramot at Tel-Aviv University Ltd., priority 2010, published 2013)
For at least one compound, name, drawing or mass did not settle the structure.

System: HaCaT cells
Experiment: Proton induced uptake (PIU) in HaCaT cells, FACS
Format: cell-based, human
Conditions: latrunculin-A 1 μM, cytochalasin-B 10 μM, wortmannin 1 μM, calyculin-A 50 nM, 15 minutes before; pH 5.25 10 minutes; 70 kD dextran-FITC 5 μM
Procedure: FIG. 6 is a chart showing PIU of molecules different by size and charge, in accordance with some embodiments of the invention. Hacat cultures were exposed to solutions of pH 5.2 or pH 7.4 for 5 minutes period, in the presence of different fluorescence molecules (All at 25 μM concentration). FACS analysis results (FL1, geometrical mean±SD) for the cell cultures exposed to pH 5.2 are presented as fold induction relative to results obtained for cells exposed to pH 7.4. This can be used, in some embodiments of the invention, to assess effect of molecule size and charge on uptake.
FIGS. 7A-7B are charts showing the comparison of PIU in adherent and suspended HaCaT cells, in accordance with some embodiments of the invention. For FIG. 7A, HaCaT cells were tested either at their adherent state, or following harvest at a suspended state. […] FACS analyses (FL1) in terms of geometrical mean±SD are presented as fold induction relative to the constitutive uptake at physiological pH 7.4. n=9 in 3 independent experiments. For FIG. 7B, HaCaT Cells were cultivated at low, medium or high cell density. […] The cultures were harvested and undergone FACS analyses (FL1) in terms of geometrical mean±SD and are presented as fold induction relative to the constitutive uptake of low density cultures. Statistical significance was tested against the confluent culture, n=9 in 3 independent experiments. […]

COC[C@H]1OC(=O)c2coc3c2[C@@]1(C)C1=C(C3=O)[C@@H]2CCC(=O)[C@@]2(C)C[C@H]1OC(C)=O [wortmannin]
effect of actin cytoskeleton modifier on rate of PIU of dextran-FITC: relatively minute impact on PIU increase
